Results deposited as PubChem BioAssay AID504791 (Drosophila RNAi Screening Center, 2011)
The screen tested about 23,000 reagents; below is a random part of those that have a named target and a result. Of all reagents, 199 (0.86%) are marked active. 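Plate-scaled ratios behind the calls are not deposited; printed light signals are raw; many rows marked increased or decreased are still called inactive.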 Entries without a mark were called inactive. Reagents against one gene are numbered here. A plus sign joins genes that one reagent is predicted to hit. Not given: the direction of the score.

Assay: 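Genes of the fly required for silencing by miRNA, siRNA or endo-siRNA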 (primary screen)
Cell system: Drosophila S2-derived reporter cells
Reagents: long dsRNA against Drosophila genes, about 150-250 ng dsRNA per well (siRNA assay); about 80-120 ng (miRNA assay)
Timing: about 5 days (siRNA assay); about 4 days (miRNA assay)
Challenge: copper sulfate induction of reporters: 25 µM (siRNA assay); 200 mM stated (miRNA assay), 1-2 days before reading
Measured: 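Per-well ratio of Renilla over firefly light, expressed relative to that plate's average ratio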
Units: stable assay Renilla, run 1 in luminescence; stable assay firefly, run 1 in luminescence
Active means: 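a well was a first-pass pick when its plate-scaled ratio rose above 1.5 (siRNA assay) or 1.6 (miRNA assay), or dropped below 0.6; a gene counted only if two separate dsRNAs agreed on retest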

Against CG2444, the values are stable assay Renilla, run 1 = 4691; stable assay firefly, run 1 = 4.48e5. For sgg #1 the deposit lists stable assay Renilla, run 1 = 6912; stable assay firefly, run 1 = 3.46e5. After knock-down of sgg #2, the screen gave stable assay Renilla, run 1 = 6024; stable assay firefly, run 1 = 3.08e5. sgg #3 scored stable assay Renilla, run 1 = 5870; stable assay firefly, run 1 = 2.77e5. vri #1 gave miRNA reporter change reporter ratio lowered past the hit cutoff; stable assay Renilla, run 1 = 5766; stable assay firefly, run 1 = 2.63e5. Depletion of vri #2 resulted in: stable assay Renilla, run 1 = 3936; stable assay firefly, run 1 = 3.29e5.

After knock-down of Syx6, the record shows stable assay Renilla, run 1 = 8187; stable assay firefly, run 1 = 6.60e5. Sin3A gave stable assay Renilla, run 1 = 9719; stable assay firefly, run 1 = 5.97e5. CG6040 scored stable assay Renilla, run 1 = 8603; stable assay firefly, run 1 = 3.21e5. After knock-down of Mesh1 the results were stable assay Renilla, run 1 = 6671; stable assay firefly, run 1 = 5.68e5. Depletion of CG9775 #1 came out at: stable assay Renilla, run 1 = 9180; stable assay firefly, run 1 = 4.61e5. CG9775 #2 scored stable assay Renilla, run 1 = 3807; stable assay firefly, run 1 = 3.90e5.

After knock-down of sov, the record shows stable siRNA reporter change reporter ratio lowered past the hit cutoff; stable assay Renilla, run 1 = 11317; stable assay firefly, run 1 = 1.59e6. HDAC11 gave stable assay Renilla, run 1 = 6819; stable assay firefly, run 1 = 3.39e5. With knock-down of CG42717 the results were stable assay Renilla, run 1 = 4247; stable assay firefly, run 1 = 3.52e5. For Gdi, the entry reads stable assay Renilla, run 1 = 33230; stable assay firefly, run 1 = 1.27e6. Depletion of Rcd7 gave: stable assay Renilla, run 1 = 7166; stable assay firefly, run 1 = 3.51e5. After knock-down of CG15653, the screen gave stable assay Renilla, run 1 = 6662; stable assay firefly, run 1 = 4.60e5.

CG31029 showed stable assay Renilla, run 1 = 7359; stable assay firefly, run 1 = 4.41e5. Depletion of HIPP1 came out at: stable assay Renilla, run 1 = 11179; stable assay firefly, run 1 = 3.35e5.

Entries above whose gene name starts with V or v:
vri #1 — miRNA reporter change: reporter ratio lowered past the hit cutoff; stable assay Renilla, run 1: 5766; stable assay firefly, run 1: 2.63e5
vri #2 — stable assay Renilla, run 1: 3936; stable assay firefly, run 1: 3.29e5

Continued.
Against Ank2 #1 the deposit lists stable assay Renilla, run 1 = 4606; stable assay firefly, run 1 = 2.96e5. Ank2 #2 gave stable assay Renilla, run 1 = 6047; stable assay firefly, run 1 = 3.78e5. Against Ank2 #3, the entry reads stable assay Renilla, run 1 = 6646; stable assay firefly, run 1 = 3.49e5. Ank2 #4 gave stable assay Renilla, run 1 = 6812; stable assay firefly, run 1 = 3.64e5. Knock-down of Ank2 #5 gave: stable assay Renilla, run 1 = 5956; stable assay firefly, run 1 = 4.82e5. CG15725 showed stable assay Renilla, run 1 = 6127; stable assay firefly, run 1 = 5.13e5.

With knock-down of CG17196, the record shows stable assay Renilla, run 1 = 7630; stable assay firefly, run 1 = 4.17e5. With knock-down of beat-VII #1 the results were stable assay Renilla, run 1 = 7439; stable assay firefly, run 1 = 5.37e5. Depletion of beat-VII #2 resulted in: stable assay Renilla, run 1 = 6779; stable assay firefly, run 1 = 4.93e5. After knock-down of beat-VII #3, the record shows miRNA reporter change reporter ratio raised past the hit cutoff; stable assay Renilla, run 1 = 5767; stable assay firefly, run 1 = 3.17e5. With knock-down of beat-VII #4, the record shows stable assay Renilla, run 1 = 4451; stable assay firefly, run 1 = 4.65e5. Knock-down of mthl15 gave: stable assay Renilla, run 1 = 5252; stable assay firefly, run 1 = 4.18e5.

PGRP-LD + Cralbp + Pmi gave stable assay Renilla, run 1 = 5723; stable assay firefly, run 1 = 3.34e5. CG34283 showed stable assay Renilla, run 1 = 5122; stable assay firefly, run 1 = 4.59e5. Dbp21E2 scored stable assay Renilla, run 1 = 20321; stable assay firefly, run 1 = 2.50e5.
